# Assay results reported in the supplement of paper PMC10689618.
# Structures can show the parent of a compound that is named as a salt. The list shows a part of the results. Many values rest on one well or one pass, so single values are uncertain.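 Primary human fetal astrocytes engulfed labelled rat cortical synaptosomes, measured as a red/green ratio corrected for calcein live-cell signal and scaled to the plate median. Toxicity meant calcein falling over 30%; decreased phagocytosis meant below 70% of median above 5 µM.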
# Key:
# [1] = test system: Human fetal astrocytes; experiment: loss of total cells relative to no-compound high-control median (toxicity); higher = more toxic (fewer cells); conditions: 24 h
# [2] = test system: Human fetal astrocytes; experiment: synaptosome phagocytosis (pHrodo/calcein intensity ratio) relative to plate median of data wells; higher = more phagocytosis; conditions: 24 h
Structure (SMILES),loss of total cells ([1]; 1.39 µM) [%],loss of total cells ([1]; 2.78 µM) [%],loss of total cells ([1]; 5.56 µM) [%],loss of total cells ([1]; 11.11 µM) [%],loss of total cells ([1]; 22.22 µM) [%],synaptosome phagocytosis ([2]; 1.39 µM) [%],synaptosome phagocytosis ([2]; 2.78 µM) [%],synaptosome phagocytosis ([2]; 5.56 µM) [%],synaptosome phagocytosis ([2]; 11.11 µM) [%],synaptosome phagocytosis ([2]; 22.22 µM) [%]
CN/C(=N\c1ccc(C2=NNC(=O)CC2C)cc1)NC#N (stereo not given),-10.9,-4.5,-2.2,-14.9,-38.7,106,97.5,105,99.2,114
"O=Nc1ccc2oc(=O)ccc2c1 [6-Nitroso-1,2-benzopyrone]",-21.3,9.5,-6.1,8.6,24.3,109,108,81.9,63.3,103
Nc1nc(N)c2nc(CNc3ccc(C(=O)N[C@@H](CCC(=O)O)C(=O)O)cc3)cnc2n1 [Aminopterin],-21.7,-18.6,-19.8,-8.5,11.7,113,81.5,115,125,128
CN1CCN(CC/C=C2/c3ccccc3Sc3ccc(S(=O)(=O)N(C)C)cc32)CC1 [Thiothixene hydrochloride],-18.3,7.5,1.1,34.1,13.2,98.3,109,110,77.1,72.4
CC(Cc1ccc(O)c(O)c1)(NN)C(=O)O (stereo not drawn) [S-(-)-Carbidopa],-5.4,-7.7,-13.2,-0.4,7.2,106,112,91.4,102,96.8
O=C(CCCN1CC=C(n2c(=O)[nH]c3ccccc32)CC1)c1ccc(F)cc1 [Droperidol],-1.3,0.9,3.3,6.7,-8,71.4,81.2,64.7,75.5,82.3
Oc1cc2c(c(Cl)c1O)CCNCC2c1ccccc1 (racemic) [(±)-6-Chloro-PB hydrobromide],-4.7,-20.1,2.2,-7.3,4.1,118,115,101,99.1,99.7
CCCn1cnc2c1c(=O)n(CCCCC(C)=O)c(=O)n2C [Propentofylline],-7.1,-34.4,-7.3,-8.8,-21.4,101,111,125,116,109
"CN(C)C(N)=NCCC[C@H](N)C(=O)O [N^G,N^G-Dimethylarginine hydrochloride]",-7.1,-11.1,8.2,-10.3,-8,119,98,81.3,93.7,98.3
CNc1ncnc2c1ncn2[C@H]1C[C@H](OP(=O)(O)O)[C@@H](COP(=O)(O)O)O1,10,-5.9,14.6,17.1,12.1,140,96.9,92.7,110,132

# Single records, from the list above. Order of values: loss of total cells ([1]; 1.39 µM) [%] | loss of total cells ([1]; 2.78 µM) [%] | loss of total cells ([1]; 5.56 µM) [%] | loss of total cells ([1]; 11.11 µM) [%] | loss of total cells ([1]; 22.22 µM) [%] | synaptosome phagocytosis ([2]; 1.39 µM) [%] | synaptosome phagocytosis ([2]; 2.78 µM) [%] | synaptosome phagocytosis ([2]; 5.56 µM) [%] | synaptosome phagocytosis ([2]; 11.11 µM) [%] | synaptosome phagocytosis ([2]; 22.22 µM) [%]
# Nc1nc(N)c2nc(CNc3ccc(C(=O)N[C@@H](CCC(=O)O)C(=O)O)cc3)cnc2n1 [Aminopterin] is entered as -21.7 | -18.6 | -19.8 | -8.5 | 11.7 | 113 | 81.5 | 115 | 125 | 128
# O=C(CCCN1CC=C(n2c(=O)[nH]c3ccccc32)CC1)c1ccc(F)cc1 [Droperidol] is entered as -1.3 | 0.9 | 3.3 | 6.7 | -8 | 71.4 | 81.2 | 64.7 | 75.5 | 82.3
